According to PubChem BioAssay AID1347076 (National Center for Advancing Translational Sciences (NCATS), 2019):
Values joined by “and” are separate entries in the source; they are usually repeats but may differ in a detail not shown here. Equal values may be shown once. The whole screen tested about 400,000 compounds, of which about 13,000 (3.2%) were called active. The shares of active, inactive and inconclusive entries below differ from those in the screen. Calls come from the whole dose curve; as a rule, active = well fitted cell-killing curve with a large enough effect; inconclusive = small, poorly fitted or top-dose-only effect, or effect the other way; inactive = flat fitted curve, though single readings scatter. A potency beside an inconclusive call is a rough fit, not a confirmed value.

Experiment: qHTS assay for MDR1-selective chemotherapeutics: Primary screen using the drug-selected MDR subline cells KB-V1; note: nearly all actives have a fitted effect of over 60% in size
Conditions: KB-V1 MDR cells viability, CellTiter-Glo, 72 h; activity change, negative = cytotoxicity: at 46.1 µM (top of the series)
Outline: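 qHTS viability screen in drug-selected KB-V1 MDR cells: 72 h compound treatment at 37 degrees C, ATP luminescence end point.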
% is set by controls: 0 for no effect and ±100 for the full control effect; potency is the fitted concentration of half-maximal effect.

SMILES | Potency | activity change, negative = cytotoxicity
COCCN(C(=O)c1ccc2c(c1)C(=O)N(c1ccccc1Cl)C2=O)c1c(N)n(CC(C)C)c(=O)[nH]c1=O | inconclusive: 29.1 µM [rising, single point] | 
CCCCCOC(=O)C1=C(C)Nc2ncnn2C1c1cccs1 (stereo unspecified) | inconclusive: 18.4 µM [cytotoxic, single point] | 
COc1ccc(CC(=O)Nc2ccc3nc(Nc4cccc(Cl)c4)cc(C)c3c2)cc1 | inconclusive: 29.1 µM [cytotoxic, single point] | 
O=C(NC(=S)Nc1cccc(Cl)c1N1CCCCC1)c1ccc2c(c1)OCCO2 | active: 14.6 µM | 
CCOc1ccc(N(CC(=O)NCc2ccc3c(c2)OCO3)C(=O)c2csnn2)cc1 | inconclusive: 16.4 µM [cytotoxic, single point] | 
CC1CCc2sc(C(=O)N(C)CC(=O)Nc3ccc(N4CCOCC4)cc3)cc2C1 (stereo unspecified) | inconclusive: 16.4 µM [cytotoxic, single point] | 
Nc1oc2ccccc2c1C(=O)Cc1ccccc1O[C@@H]1O[C@H](CO)[C@@H](O)[C@H](O)[C@H]1O |  | inconclusive: 42.4%
O=C(Nc1nc(-c2ccc(Cl)s2)cs1)c1ccncc1 | active: 6.51 µM | 
CCOC(=O)c1ccc(NC(=O)c2ccc(OC(C)C)c(OC)c2)cc1 | inconclusive: 23.1 µM [cytotoxic, single point] | 
CNc1cc2c(cc1S(=O)(=O)Nc1ccc(C)c(C)c1)CCC(=O)N2 | inactive | 
COCCN(Cc1ccccc1)C(=O)C1CCN(C(=O)Nc2ccccc2)CC1 | inconclusive: 29.1 µM [cytotoxic, single point] | 
COc1cc(NC(=O)C2=CC(c3ccc(C)cc3)=NS(=O)(=O)N2C)cc(OC)c1OC | inactive | 
COc1ccc(-c2cc(C(=O)Nc3ccccc3N3CCOCC3)c3ccccc3n2)cc1OC | inconclusive: 3.66 µM [cytotoxic, partial curve, poor fit] | 
COc1ccc(NC(=O)CSc2nc(=O)n(CCN3CCOCC3)c3c2CCCC3)c(OC)c1 | active: 8.2 µM | 
O=C(C[C@H]1C(=O)N(C2CCCCC2)C[C@@H]1Cc1ccccc1)Nc1ccccc1 | inconclusive: 25.9 µM [cytotoxic, partial curve, poor fit] | 
Brc1ccc(CSc2ccc3nnc(-c4cccnc4)n3n2)cc1 | active: 9.2 µM | 
C[C@@H]1CN([C@H](C)CO)C(=O)CCCn2cc(nn2)CO[C@H]1CN(C)C(=O)Nc1cccc(Oc2ccccn2)c1 | inconclusive: 29.1 µM [rising, single point] | 
O=C(CCc1nnc(CCC2CCCCC2)o1)NCCn1cccn1 | inconclusive: 0.82 µM [rising, full curve, poor fit] | 
Cc1ccc2nc(-c3ccccc3)cc(C(=O)N(C)CC(=O)Nc3ccccc3Br)c2c1 | active: 20.6 µM | 
O=C1C=C(c2ccc(-c3ccccc3)c(F)c2)C[C@@H](c2ccc3c(c2)OCO3)C1 | inconclusive: 23.1 µM [rising, single point] | 
CC[C@]1(c2ccccc2OC)ON(c2ccccc2C(F)(F)F)C1=O | inconclusive: 14.6 µM [cytotoxic, single point] | 
COc1ccccc1N(C)S(=O)(=O)c1ccc(Cl)c(C(=O)N2CCC2)c1 | inconclusive: 25.9 µM [cytotoxic, partial curve, poor fit] | 

SMILES | Potency | activity change, negative = cytotoxicity
COc1ccccc1-c1cc(C(=O)Nc2c(C)n(C)n(-c3ccccc3)c2=O)no1 | inactive | 
CCN1CCOC(=O)C1CC(=O)Nc1ccc(C)c(Cl)c1 (stereo unspecified) | inconclusive: 6.51 µM [rising, partial curve] | 
COc1cccc(-c2ccc(NC(=O)C3CCCN(Cc4ccc(CO)o4)C3)cc2)c1 (stereo unspecified) | inconclusive: 11.6 µM [cytotoxic, partial curve] | 
COc1ccc(OC)c(NC(=O)c2c(NCc3ccc(OC)c(OC)c3)sc3c2CCC(C)C3)c1 (stereo unspecified) | inactive | 
CC(=O)Nc1ccc(-c2cc(-c3ccc(NC(C)=O)cc3)nc(-c3ccccc3)n2)cc1 | inactive | 
Cc1cc(F)ccc1-c1cc(C(=O)NCc2cc(C(F)(F)F)cc(C(F)(F)F)c2)[nH]n1 | inactive | 
C/C(=N\Nc1ccc(S(N)(=O)=O)cc1[N+](=O)[O-])c1ccc2c(c1)OCO2 | inactive | 
Cc1cccc(C(=O)N2CCCC(CCC(=O)N3CCN(c4ccccn4)CC3)C2)c1C (stereo unspecified) | inconclusive: 10.3 µM [cytotoxic, partial curve] | 
Cc1cc(C)nc(NS(=O)(=O)c2ccc(NC(=O)c3cc(=O)c4ccc(C)c(C)c4o3)cc2)n1 | inactive | 
O=C(NCc1ccco1)C(c1ccccc1)N(C(=O)Cc1cccs1)c1ccccc1F (stereo unspecified) | inconclusive: 23.1 µM [cytotoxic, partial curve, poor fit] | 
O=C(CN1CCN(C/C=C/c2ccccc2)CC1)Nc1ccccc1C(=O)NC1CC1 | inconclusive: 1.84 µM [cytotoxic, full curve] | 
O=C(O)CNC(=O)C12CC3CC(CC(Cl)(C3)C1)C2 | inconclusive: 0.651 µM [cytotoxic, partial curve, poor fit] | 
CC1=CC(C)C2(COC(=O)Nc3ccccc3)COC(C)C1C2C (stereo unspecified) | inconclusive: 14.6 µM [cytotoxic, partial curve] | 
Cc1ccc(C(=O)N/N=C(/CC(=O)c2cccs2)C(F)(F)F)cc1 | inconclusive: 29.1 µM [cytotoxic, single point] | 
CCc1cccc(NC(=O)Cc2ccc(OC)c(OC)c2)c1 | active: 16.4 µM | 
CC1CC(C)CN(S(=O)(=O)CCNC(=O)c2ccccc2)C1 (stereo unspecified) | inconclusive: 9.2 µM [cytotoxic, partial curve, poor fit] | 
Cc1ccc(C)c(S(=O)(=O)N2CCN(c3nc(CN4CCOCC4)nc4sc(C)c(C)c34)CC2)c1 | inactive | 
CCOc1ccccc1NC(=O)c1cc(-c2ccccn2)nc2ccccc12 | inconclusive: 23.1 µM [cytotoxic, single point] | 
COc1ccc2c(c1)C[C@]1(C)c3ccccc3C(=O)N(Cc3ccccc3)[C@H]21 | inconclusive: 20.6 µM [cytotoxic, partial curve] and inconclusive: 20.6 µM [cytotoxic, single point] | 
COc1cc(OC)cc(-c2nc3ccccc3c(=O)n2OC(=O)c2ccc(Br)cc2)c1 | inconclusive: 29.1 µM [cytotoxic, single point] | 
CCn1c2ccccc2c2cc(NC(=O)c3cccc([N+](=O)[O-])c3C)ccc21 | inconclusive: 29.1 µM [cytotoxic, single point] | 
CN(C)c1ccc(/C=C2\SC(N3CCCCC3)=NC2=O)cc1 | inconclusive: 18.4 µM [rising, single point] | 

SMILES | Potency | activity change, negative = cytotoxicity
CCOc1ccc(S(=O)(=O)N2CCOCC2)cc1NC(=O)CSCC(=O)Nc1ccc(OC)cc1 | inconclusive: 29.1 µM [cytotoxic, single point] | 
N#C/C(=C\c1cn(CC(=O)O)c2ccccc12)C(=O)NCc1ccccc1 | inconclusive: 23.1 µM [rising, single point] | 
CCOC(=O)N1CCN(C(=O)CSc2ccc3nnc(-c4cccnc4)n3n2)CC1 | inactive | 
Cc1cc(COc2ccccc2O)on1 | inconclusive: 29.1 µM [rising, single point] | 
O=C(c1ccc2c(c1)OCO2)C1CCCN(Cc2cc(F)ccc2-n2cccn2)C1 (stereo unspecified) | inconclusive: 11.6 µM [cytotoxic, partial curve] | 
CCOc1cc2c(cc1/C=C/c1noc(C)c1[N+](=O)[O-])OC(C)C2 (stereo unspecified) | inconclusive: 29.1 µM [rising, single point] | 
CC(C)c1ccc(C(C)NCCS(=O)(=O)c2ccc(Br)cc2)cc1 (stereo unspecified) | inactive | 
CCN1C(=O)[C@H]2[C@@H](c3ccc(-c4ccc(Cl)c(Cl)c4)cc3)N[C@@](C)(C(=O)OC)[C@H]2C1=O | inconclusive: 18.4 µM [cytotoxic, single point] | 
CCOC(=O)c1c(C)c(-c2ccccc2)n(CC(=O)NCCCN(CC)CC)c1C | inactive | 
CCC(C(=O)OCC(=O)N(CC)c1c(N)n(Cc2ccccc2)c(=O)[nH]c1=O)c1ccccc1 (stereo unspecified) | inactive | 
O=C(Nc1ccc(F)cc1)c1oc2ccccc2c1NC(=O)C1CCCCC1 | inactive | 
CC(C)CC(NC(=O)CC12CC3CC(CC(C3)C1)C2)C(=O)NC1=NCCS1 (stereo unspecified) | inconclusive: 29.1 µM [cytotoxic, single point] | 
CCn1c(SCC(=O)NCc2ccco2)nnc1-c1cccc(N(C)C)c1 | inactive | 
O=C(NC1CCCC1)C(c1ccncc1)N(C(=O)Cc1cccs1)c1ccccc1 (stereo unspecified) | inconclusive: 18.4 µM [cytotoxic, partial curve, poor fit] | 
Cc1cccc(/C=N/n2c(COc3ccccc3)n[nH]c2=S)c1 | inconclusive: 2.06 µM [rising, partial curve, poor fit] | 
COc1ccc2nc(NC(=O)CSc3n[nH]c(N)n3)sc2c1 | inactive | 
CCOc1ccc(NC(=O)CN(C)C(=O)c2cc3c(s2)CCCCC3)cc1OCC | inconclusive: 4.11 µM [cytotoxic, partial curve] | 
COc1ccc(C(NC(C)=O)c2ccc3cccnc3c2O)c(OC)c1 (stereo unspecified) | inconclusive: 11.6 µM [cytotoxic, single point] | 
CC1(C(=O)Nc2ccc3c(c2)OCO3)CCN1C(=O)Cc1cc(F)ccc1F (stereo unspecified) | inconclusive: 20.6 µM [cytotoxic, single point] | 
O=C1NC(c2cccc(Cl)c2)Nc2ccccc21 (stereo unspecified) | active: 8.2 µM | 
Oc1ccccc1-c1nc(NCc2ccccc2)c2ccccc2n1 | inactive | 
NC(=O)C1CCN(C(=O)CCC(=O)c2ccc(F)cc2)CC1 | inconclusive: 23.1 µM [rising, partial curve, poor fit] | 

As entered above:
For Potency, Cc1cc(COc2ccccc2O)on1 is entered as inconclusive: 29.1 µM [rising, single point]
For Potency, Oc1ccccc1-c1nc(NCc2ccccc2)c2ccccc2n1 is entered as inactive
For Potency, CCOc1cc2c(cc1/C=C/c1noc(C)c1[N+](=O)[O-])OC(C)C2 (stereo unspecified) is entered as inconclusive: 29.1 µM [rising, single point]
